Data taken from paper PMC7608443.
Results are given in words; binding and its absence hold for the method and conditions named. Binding seen in cells or lysates may run through a third protein. Some binding calls cover weakened binding; strength is not graded here. For part of these data: Where a sequence is shown, tags or fusion partners need not be part of it.

By UniProt entry, the sequences of proteins in these tests, tags left out.
UniProt P35991: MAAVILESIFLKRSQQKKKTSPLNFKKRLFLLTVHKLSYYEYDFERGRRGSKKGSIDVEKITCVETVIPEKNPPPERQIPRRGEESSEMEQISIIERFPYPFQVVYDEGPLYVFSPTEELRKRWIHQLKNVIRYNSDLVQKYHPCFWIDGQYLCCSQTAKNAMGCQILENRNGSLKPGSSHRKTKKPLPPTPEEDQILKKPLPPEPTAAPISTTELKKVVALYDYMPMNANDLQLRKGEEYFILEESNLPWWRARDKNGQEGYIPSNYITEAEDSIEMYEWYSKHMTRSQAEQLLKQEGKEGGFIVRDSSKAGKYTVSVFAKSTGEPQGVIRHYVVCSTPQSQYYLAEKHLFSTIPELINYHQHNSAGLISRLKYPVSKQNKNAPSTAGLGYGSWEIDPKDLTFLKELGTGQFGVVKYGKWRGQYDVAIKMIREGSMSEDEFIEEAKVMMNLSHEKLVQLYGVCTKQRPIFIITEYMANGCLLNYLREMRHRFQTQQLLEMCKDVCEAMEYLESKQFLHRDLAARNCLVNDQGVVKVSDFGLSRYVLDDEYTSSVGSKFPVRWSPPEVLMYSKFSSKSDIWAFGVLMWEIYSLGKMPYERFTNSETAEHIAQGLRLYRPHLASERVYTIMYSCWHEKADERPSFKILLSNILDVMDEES
UniProt P43404: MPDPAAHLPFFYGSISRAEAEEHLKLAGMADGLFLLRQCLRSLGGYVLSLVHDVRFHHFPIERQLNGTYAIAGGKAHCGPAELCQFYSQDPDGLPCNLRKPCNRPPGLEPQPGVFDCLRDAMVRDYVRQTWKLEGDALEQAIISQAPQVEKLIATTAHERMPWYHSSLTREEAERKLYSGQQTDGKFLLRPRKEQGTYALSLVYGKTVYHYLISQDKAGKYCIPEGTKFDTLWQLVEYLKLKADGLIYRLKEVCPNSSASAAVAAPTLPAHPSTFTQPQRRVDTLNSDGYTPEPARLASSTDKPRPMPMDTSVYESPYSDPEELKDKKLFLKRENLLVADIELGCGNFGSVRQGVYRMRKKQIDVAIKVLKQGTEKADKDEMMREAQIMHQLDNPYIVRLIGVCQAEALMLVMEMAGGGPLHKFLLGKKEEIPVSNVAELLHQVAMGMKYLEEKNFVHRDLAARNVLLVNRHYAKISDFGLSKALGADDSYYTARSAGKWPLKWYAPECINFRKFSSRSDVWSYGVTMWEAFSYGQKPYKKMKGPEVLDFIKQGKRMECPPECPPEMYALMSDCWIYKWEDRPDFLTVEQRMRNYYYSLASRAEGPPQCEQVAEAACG

How the values were obtained:
Flag-tagged PLCγ1 = target: T1, Flag-tagged PLCγ1 (UniProt Q62077); experiment: co-IP; BTK-HA overexpressed in 293T cells with a Flag-tagged partner; immunoprecipitation with a Flag antibody, immunoblot; in the absence of TCR signaling
T1 sequence: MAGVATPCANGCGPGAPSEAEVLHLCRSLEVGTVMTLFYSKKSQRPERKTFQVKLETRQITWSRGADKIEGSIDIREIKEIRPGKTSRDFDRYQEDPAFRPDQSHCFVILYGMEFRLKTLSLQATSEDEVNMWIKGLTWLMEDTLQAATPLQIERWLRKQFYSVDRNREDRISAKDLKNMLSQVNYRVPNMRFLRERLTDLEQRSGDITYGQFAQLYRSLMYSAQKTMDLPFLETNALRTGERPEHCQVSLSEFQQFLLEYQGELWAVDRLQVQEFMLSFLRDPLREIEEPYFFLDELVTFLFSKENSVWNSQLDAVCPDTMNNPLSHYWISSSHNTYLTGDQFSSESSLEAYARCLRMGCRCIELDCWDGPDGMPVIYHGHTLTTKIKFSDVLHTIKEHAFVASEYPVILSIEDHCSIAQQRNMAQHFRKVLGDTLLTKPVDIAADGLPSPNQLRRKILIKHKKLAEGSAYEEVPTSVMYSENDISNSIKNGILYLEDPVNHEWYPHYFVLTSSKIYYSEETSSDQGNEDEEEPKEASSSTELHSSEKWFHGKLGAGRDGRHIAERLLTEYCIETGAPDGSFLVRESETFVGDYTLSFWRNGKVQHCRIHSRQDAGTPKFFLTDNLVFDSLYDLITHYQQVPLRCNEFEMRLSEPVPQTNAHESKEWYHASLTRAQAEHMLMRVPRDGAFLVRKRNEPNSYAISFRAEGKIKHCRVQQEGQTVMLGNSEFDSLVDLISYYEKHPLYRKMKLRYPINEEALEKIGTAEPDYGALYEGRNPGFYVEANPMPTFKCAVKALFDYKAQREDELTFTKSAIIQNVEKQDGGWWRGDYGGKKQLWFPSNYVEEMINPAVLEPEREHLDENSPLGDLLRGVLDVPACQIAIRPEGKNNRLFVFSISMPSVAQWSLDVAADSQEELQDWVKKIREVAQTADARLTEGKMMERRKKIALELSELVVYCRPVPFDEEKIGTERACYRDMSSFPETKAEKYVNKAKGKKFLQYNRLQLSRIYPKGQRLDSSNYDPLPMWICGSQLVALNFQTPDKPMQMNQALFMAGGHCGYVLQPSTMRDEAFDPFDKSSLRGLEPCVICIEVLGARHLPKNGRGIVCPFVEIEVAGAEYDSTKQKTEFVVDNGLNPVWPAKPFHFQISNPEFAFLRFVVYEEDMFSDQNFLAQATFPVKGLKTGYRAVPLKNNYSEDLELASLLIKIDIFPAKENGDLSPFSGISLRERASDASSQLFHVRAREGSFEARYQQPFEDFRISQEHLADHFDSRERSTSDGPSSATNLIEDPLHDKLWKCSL

[1] = target: Bruton's tyrosine kinase (BTK), endogenous in CD4+ T cells (mouse (endogenous in CD4+ T cells)) (UniProt P35991); experiment: co-IP; endogenous proteins; CD4+ T cells with or without TCR engagement (plate-bound anti-CD3 plus CD28); lysates immunoprecipitated with an anti-BTK antibody, immunoblot

Molecule: BTK-HA (Bruton's tyrosine kinase, HA-tagged) (from UniProt P35991 1-659)
- binding (Flag-tagged PLCγ1): binds

Molecule: ZAP70, endogenous in CD4+ T cells (from UniProt P43404 1-618)
- binding [1]: no binding

B1: LAT, endogenous in CD4+ T cells (protein, UniProt O54957 1-242)
chain: MEADALSPVGLGLLLLPFLVTLLAALCVRCRELPVSYDSTSTESLYPRSILIKPPQITVPRTPAVSYPLVTSFPPLRQPDLLPIPRSPQPLGGSHRMPSSQQNSDDANSVASYENQEPACKNVDADEDEDDYPNGYLVVLPDSSPAAVPVVSSAPVPSNPDLGDSAFSVESCEDYVNVPESEESAEASLDGSREYVNVSPEQQPVTRAELASVNSQEVEDEGEEEGVDGEEAPDYENLQELN
- binding [1]: no binding
